The text below walks through data of publication PMC7862700.

By UniProt entry, the sequences of proteins in these tests, tags left out. Where a name states a change or a piece, a line headed by the entry shows the natural chain unless it says otherwise.
UniProt O43186: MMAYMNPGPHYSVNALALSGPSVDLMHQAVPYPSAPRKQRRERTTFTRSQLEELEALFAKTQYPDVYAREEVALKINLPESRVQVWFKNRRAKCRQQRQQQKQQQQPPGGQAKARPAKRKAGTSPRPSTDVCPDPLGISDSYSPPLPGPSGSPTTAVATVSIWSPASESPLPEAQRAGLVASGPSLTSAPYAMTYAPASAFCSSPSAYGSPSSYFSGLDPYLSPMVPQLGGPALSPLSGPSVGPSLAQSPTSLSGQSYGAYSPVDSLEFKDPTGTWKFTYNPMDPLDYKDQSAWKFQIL

The list shows a part of the results, in another mix than the full data. At the low end of the ranking the order means little.

What all share (assay): DAPPL (digital affinity profiling via proximity ligation, sequencing)
Settings in all cases: 10 mM Tris-HCl pH 7.5, 50 mM NaCl, 1 mM DTT, 4% glycerol, room temperature, 30 min; GST-TFs on glutathione beads, 16-mer random dsDNA library, 0.1% …; high values mean tight binding; double strand, one strand shown; scale: fold enrichment (6-mer frequency, TF over GST control)

One test deals with T1, FEV (UniProt Q99581).
T1 sequence: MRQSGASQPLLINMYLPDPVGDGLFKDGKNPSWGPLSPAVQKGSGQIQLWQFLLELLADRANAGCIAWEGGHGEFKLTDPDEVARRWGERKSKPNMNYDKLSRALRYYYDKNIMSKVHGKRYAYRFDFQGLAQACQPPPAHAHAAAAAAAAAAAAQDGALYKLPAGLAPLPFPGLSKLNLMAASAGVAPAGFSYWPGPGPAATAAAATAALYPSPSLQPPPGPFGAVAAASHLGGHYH

A further test has as its target CRX (UniProt O43186).
In a further test the target is T2, ELF5 (UniProt Q9UKW6-2).
T2 sequence: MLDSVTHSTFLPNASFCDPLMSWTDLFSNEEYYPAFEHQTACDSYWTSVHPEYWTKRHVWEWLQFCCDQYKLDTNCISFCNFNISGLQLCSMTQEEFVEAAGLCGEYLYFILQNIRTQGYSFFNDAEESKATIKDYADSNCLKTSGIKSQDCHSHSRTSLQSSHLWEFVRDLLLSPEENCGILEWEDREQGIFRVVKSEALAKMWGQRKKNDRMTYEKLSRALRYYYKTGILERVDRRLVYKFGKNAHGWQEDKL

In the case of AGAGTG, the binding signal with FEV was 0.668; with CRX, 0.528; in the test with ELF5 it was 0.6.

Consider GGGAGG, for which the binding signal with FEV came out at 0.297; with CRX, 0.235; in the test with ELF5, 0.301.

On to AGACAG, for which the binding signal stood at 0.494 with FEV, 0.411 in the test with CRX and 0.52 with ELF5.

As to GAGCCC, the binding signal was 0.759 with FEV, 0.615 with CRX and 0.703 in the test with ELF5.

As for GTCGGT, the binding signal with FEV is 0.285; with CRX, 0.202; with ELF5, 0.286.

With GGTCGA, the results for the binding signal with FEV, with CRX and with ELF5 were 0.731, 0.542 and 0.698, respectively.

As to GGACCC, the binding signal with FEV was 0.823; with CRX it was 0.602; with ELF5, 0.806.

For CAGGTT, the binding signal worked out at 0.637 in the test with FEV, 0.548 with CRX and 0.636 with ELF5.

As to GAGCCG, the figures for the binding signal with FEV, with CRX and with ELF5 were 0.425, 0.361 and 0.37, respectively.

As to GCACCA, the binding signal with FEV came to 0.847; with CRX, 0.643; with ELF5, 0.876.

On to TGGAGT, for which the values for the binding signal in the test with FEV, in the test with CRX and in the test with ELF5 were 0.45, 0.458 and 0.533, respectively.

For the sequence CCTGAG, the binding signal in the test with FEV turned out to be 0.816; in the test with CRX, 0.785; with ELF5, 0.826.

Turning to ATAGAG, the binding signal with FEV amounted to 0.816; with CRX, 0.933; in the test with ELF5, 0.848.

As for TAAGTG, the binding signal was found to be 0.763 with FEV, 1.14 with CRX and 0.75 in the test with ELF5.

For CAGCCG, the binding signal with FEV was 0.717; in the test with CRX, 0.535; with ELF5, 0.635.

Turning to CGGCGT, the binding signal with FEV was determined as 0.854; in the test with CRX, 0.642; with ELF5, 0.776.

With CCATCG, the figures for the binding signal with FEV, in the test with CRX and with ELF5 were 0.808, 0.706 and 0.773, respectively.

CGAGCG: the binding signal turned out to be 0.919 with FEV, 0.729 with CRX and 0.838 in the test with ELF5.

Consider CAGGGT, for which the binding signal in the test with FEV turned out to be 0.834; with CRX, 0.666; with ELF5, 0.845.

On to CGTGCC, for which the binding signal with FEV is 0.843; in the test with CRX, 0.623; in the test with ELF5 it was 0.753.

As for GTCATA, the binding signal in the test with FEV came out at 0.723; in the test with CRX, 0.603; with ELF5, 0.699.

AGCGGG: the binding signal with FEV is 0.489; with CRX it was 0.447; in the test with ELF5, 0.465.

In the case of CTGAGT, the binding signal was determined as 0.588 in the test with FEV, 0.581 in the test with CRX and 0.53 in the test with ELF5.

CGGGTC: the binding signal in the test with FEV came to 0.681; with CRX, 0.462; with ELF5, 0.788.

As to CAGCAA, the binding signal with FEV was 0.93; with CRX, 0.828; in the test with ELF5, 0.885.

Take ATCGTG: the binding signal was determined as 0.403 in the test with FEV, 0.403 in the test with CRX and 0.381 in the test with ELF5.

As to GGCGAG, the binding signal with FEV is 0.551; with CRX, 0.433; with ELF5, 0.531.

Take GCTGAG: the binding signal was determined as 0.624 with FEV, 0.655 with CRX and 0.587 in the test with ELF5.

With CGGAGC, the results for the binding signal with FEV, in the test with CRX and in the test with ELF5 were 0.361, 0.296 and 0.35, respectively.

For CGAGAG, the binding signal with FEV is 0.391; in the test with CRX it was 0.395; in the test with ELF5 it was 0.402.

In the case of GACAAA, the results for the binding signal in the test with FEV, with CRX and in the test with ELF5 were 0.983, 0.836 and 0.945, respectively.

With CTGTCG, the binding signal with FEV was 0.552; in the test with CRX it was 0.433; with ELF5 it was 0.548.

As for AGGTCA, the figures for the binding signal with FEV, in the test with CRX and with ELF5 were 0.693, 0.563 and 0.687, respectively.

For the sequence GGTGGG, the binding signal in the test with FEV worked out at 0.631; with CRX, 0.507; in the test with ELF5 it was 0.634.

In the case of CAGCAG, the results for the binding signal with FEV, with CRX and in the test with ELF5 were 0.834, 0.632 and 0.757, respectively.

Consider CGGCGA, for which the values for the binding signal in the test with FEV, with CRX and in the test with ELF5 were 0.792, 0.602 and 0.737, respectively.

Take GGGGCA: the binding signal with FEV was found to be 0.671; in the test with CRX, 0.531; with ELF5, 0.662.

As to AGTTAG, the binding signal with FEV is 0.843; in the test with CRX, 0.747; with ELF5, 0.825.

Regarding TCGGAG, the values for the binding signal with FEV, with CRX and with ELF5 were 0.182, 0.183 and 0.171, respectively.

For CGGGTG, the binding signal came out at 0.655 in the test with FEV, 0.429 in the test with CRX and 0.667 in the test with ELF5.

With GAGCAA, the binding signal in the test with FEV was 0.744; in the test with CRX it was 0.642; with ELF5, 0.697.

On to GAGGCT, for which the values for the binding signal with FEV, with CRX and with ELF5 were 0.574, 0.671 and 0.565, respectively.

On to GGGGGA, for which the binding signal with FEV was 0.581; with CRX it was 0.579; with ELF5, 0.619.

In the case of GCACGG, the binding signal is 0.809 with FEV, 0.634 in the test with CRX and 0.852 with ELF5.

GAGCGG: the values for the binding signal in the test with FEV, in the test with CRX and in the test with ELF5 were 0.537, 0.407 and 0.496, respectively.

GGACTA: the binding signal in the test with FEV turned out to be 0.864; in the test with CRX it was 0.976; with ELF5, 0.83.

Consider CGGGCA, for which the binding signal stood at 0.706 in the test with FEV, 0.571 in the test with CRX and 0.699 in the test with ELF5.

Regarding CAGGCC, the results for the binding signal with FEV, with CRX and in the test with ELF5 were 0.725, 0.594 and 0.662, respectively.

For TCGGTT, the binding signal with FEV stood at 0.815; in the test with CRX, 0.793; in the test with ELF5 it was 0.774.

TGGAGA: the values for the binding signal with FEV, with CRX and with ELF5 were 0.397, 0.434 and 0.38, respectively.

CAGCGG: the binding signal in the test with FEV came out at 0.486; with CRX, 0.352; with ELF5, 0.41.

As for AGTGAA, the binding signal worked out at 0.907 with FEV, 0.698 in the test with CRX and 0.937 in the test with ELF5.

As for CGGAAT, the binding signal was determined as 0.941 in the test with FEV, 0.718 with CRX and 0.996 with ELF5.

In the case of GGTGCT, the figures for the binding signal with FEV, in the test with CRX and with ELF5 were 0.858, 0.758 and 0.866, respectively.

As for GAGTTG, the binding signal came out at 0.462 with FEV, 0.425 with CRX and 0.473 with ELF5.

For the sequence CAGGGC, the binding signal was determined as 0.851 with FEV, 0.628 in the test with CRX and 0.712 with ELF5.

As to AGTGAG, the binding signal was 0.257 in the test with FEV, 0.214 with CRX and 0.256 in the test with ELF5.

Consider CAGGTC, for which the binding signal amounted to 0.633 in the test with FEV, 0.514 with CRX and 0.665 with ELF5.

Take GTGTAT: the binding signal in the test with FEV is 0.888; with CRX, 0.767; with ELF5 it was 0.909.

GGCGGA: the binding signal with FEV was 0.417; in the test with CRX it was 0.246; with ELF5, 0.408.
